From patent US20240085427A1 (published 2024)
These are yes or no findings as the source states them, for the method shown. Some entries that bind do so weakly or less than the wild type.

By UniProt entry, the sequences of proteins in these tests, tags left out. Residues count along the entry.
UniProt O95994, residues 21-175: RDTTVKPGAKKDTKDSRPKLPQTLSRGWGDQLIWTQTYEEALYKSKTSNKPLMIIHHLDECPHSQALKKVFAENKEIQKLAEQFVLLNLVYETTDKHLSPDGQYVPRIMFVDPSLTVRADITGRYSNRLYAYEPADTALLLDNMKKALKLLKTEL

B1: anti-AGR2 scFv clone 26 (scFv)
scFv: EVQLLESGGGLVQPGGSLRLSCAASGFTFSSYAMSWVRQAPGKGLEWVSSIQGQGRITRYADSVKGRFTISRDNSKNTLYLQMNSLRAEDTAVYYCAKRAIMFDYWGQGTLVTVSSGGGGSGGGGSGGGGSTDIQMTQSPSSLSASVGDRVTITCRASQSISSYLNWYQQKPGKAPKLLIYHASLLQSGVPSRFSGSGSGTDFTLTISSLQPEDFATYYCQQARYWPLTFGQGTKVEIK
B2: anti-AGR2 scFv clone 19 (scFv)
scFv: EVQLLESGGGLVQPGGSLRLSCAASGFTFSSYAMSWVRQAPGKGLEWVSAIASQGVATGYADSVKGRFTISRDNSKNTLYLQMNSLRAEDTAVYYCAKLDQHFDYWGQGTLVTVSSGGGGSGGGGSGGGGSTDIQMTQSPSSLSASVGDRVTITCRASQSISSYLNWYQQKPGKAPKLLIYQASRLQSGVPSRFSGSGSGTDFTLTISSLQPEDFATYYCQQARRLPLTFGQGTKVEIK
B3: anti-AGR2 scFv clone 1 (scFv)
scFv: EVQLLESGGGLVQPGGSLRLSCAASGFTFSSYAMSWVRQAPGKGLEWVSGIQSTGALTAYADSVKGRFTISRDNSKNTLYLQMNSLRAEDTAVYYCAKLAQTFDYWGQGTLVTVSSGGGGSGGGGSGGGGSTDIQMTQSPSSLSASVGDRVTITCRASQSISSYLNWYQQKPGKAPKLLIYRASSLQSGVPSRFSGSGSGTDFTLTISSLQPEDFATYYCQQTRRLPVTFGQGTKVEIK

The binders below were run against Anterior Gradient 2 (AGR2) (UniProt O95994) (assay: screening of monoclonal phage and soluble scFv from crude bacterial lysates).

Row | binding | Binder
1 | binds | B1
2 | binds | B2
3 | binds | B3

Each binder was assayed against Anterior Gradient 2 (AGR2) (UniProt O95994) (assay: ELISA on coated plates (FIG. 6A)).

Row | binding | Binder
4 | binds | B1
5 | binds | B2
6 | binds | B3
